This note sets out measurements from paper PMC6173745, “Aberrant expression of CITED2 promotes prostate cancer metastasis by activating the nucleolin-AKT pathway” (Nature Communications, 2018).

Chains of the proteins cited; added tags and fusions are not shown. Lines headed by an entry give the natural chain unless they say otherwise; changes in a name come on top.
UniProt Q9BQA1: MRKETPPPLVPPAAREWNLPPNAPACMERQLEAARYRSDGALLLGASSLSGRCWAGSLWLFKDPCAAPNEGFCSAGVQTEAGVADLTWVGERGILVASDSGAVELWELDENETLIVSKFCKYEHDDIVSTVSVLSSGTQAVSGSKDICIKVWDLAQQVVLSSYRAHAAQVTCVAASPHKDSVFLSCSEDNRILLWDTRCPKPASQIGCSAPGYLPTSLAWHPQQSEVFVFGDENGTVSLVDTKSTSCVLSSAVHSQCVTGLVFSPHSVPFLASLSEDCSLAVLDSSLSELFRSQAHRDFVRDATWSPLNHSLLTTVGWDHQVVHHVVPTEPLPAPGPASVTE
UniProt O14744: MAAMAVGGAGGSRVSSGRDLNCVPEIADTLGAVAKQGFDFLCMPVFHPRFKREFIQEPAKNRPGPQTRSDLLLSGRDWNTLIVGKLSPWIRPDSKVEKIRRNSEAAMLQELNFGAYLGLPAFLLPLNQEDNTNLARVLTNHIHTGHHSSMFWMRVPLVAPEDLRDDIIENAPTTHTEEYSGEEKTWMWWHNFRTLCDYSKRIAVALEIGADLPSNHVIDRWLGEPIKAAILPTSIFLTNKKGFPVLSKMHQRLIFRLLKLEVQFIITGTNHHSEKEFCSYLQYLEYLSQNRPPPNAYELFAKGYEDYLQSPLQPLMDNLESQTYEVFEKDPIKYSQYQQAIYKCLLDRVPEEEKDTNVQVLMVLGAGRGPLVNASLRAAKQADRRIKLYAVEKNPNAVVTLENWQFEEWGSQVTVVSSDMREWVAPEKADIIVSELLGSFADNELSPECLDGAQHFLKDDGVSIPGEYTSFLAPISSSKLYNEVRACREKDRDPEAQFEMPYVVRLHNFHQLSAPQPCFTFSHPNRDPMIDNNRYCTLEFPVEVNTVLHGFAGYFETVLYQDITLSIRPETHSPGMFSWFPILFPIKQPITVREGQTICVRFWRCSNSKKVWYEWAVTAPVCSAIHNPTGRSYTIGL

For this assay, the target named is T1, Flag/SBP-CITED2 (CBP/p300-interacting transactivator with E/D-rich carboxy-terminal domain-2) (UniProt Q99967).
T1 sequence: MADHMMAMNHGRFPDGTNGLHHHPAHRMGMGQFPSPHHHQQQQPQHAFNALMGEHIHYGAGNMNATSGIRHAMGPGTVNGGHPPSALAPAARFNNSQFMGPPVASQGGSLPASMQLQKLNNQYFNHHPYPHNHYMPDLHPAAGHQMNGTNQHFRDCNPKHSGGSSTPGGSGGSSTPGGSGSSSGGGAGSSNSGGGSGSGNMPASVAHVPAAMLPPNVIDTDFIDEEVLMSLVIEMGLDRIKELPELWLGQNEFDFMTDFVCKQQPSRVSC
As to the kind of experiment: affinity purification with mass spectrometry; Flag/SBP-CITED2 overexpressed in HEK293T cells, pulled down with anti-FLAG or streptavidin affinity beads; co-purified proteins analysed by LC-MS/MS; proteins found in both precipitates.

These are yes or no findings as the source states them, for the method shown. In cells and extracts the contact can be indirect. These calls come from enrichment with a bait or labelling near it, and not all partners need be listed. Where a sequence is shown, tags or fusion partners need not be part of it.

In the case of “WDR77, endogenous (from UniProt Q9BQA1 1-342)”, the binding result is “binds”.

With PRMT5, endogenous (from UniProt O14744), the binding result is on record as “binds”.

B1: RIOK1, endogenous (protein, UniProt Q9BRS2 1-568)
chain: MDYRRLLMSRVVPGQFDDADSSDSENRDLKTVKEKDDILFEDLQDNVNENGEGEIEDEEEEGYDDDDDDWDWDEGVGKLAKGYVWNGGSNPQANRQTSDSSSAKMSTPADKVLRKFENKINLDKLNVTDSVINKVTEKSRQKEADMYRIKDKADRATVEQVLDPRTRMILFKMLTRGIITEINGCISTGKEANVYHASTANGESRAIKIYKTSILVFKDRDKYVSGEFRFRHGYCKGNPRKMVKTWAEKEMRNLIRLNTAEIPCPEPIMLRSHVLVMSFIGKDDMPAPLLKNVQLSESKARELYLQVIQYMRRMYQDARLVHADLSEFNMLYHGGGVYIIDVSQSVEHDHPHALEFLRKDCANVNDFFMRHSVAVMTVRELFEFVTDPSITHENMDAYLSKAMEIASQRTKEERSSQDHVDEEVFKRAYIPRTLNEVKNYERDMDIIMKLKEEDMAMNAQQDNILYQTVTGLKKDLSGVQKVPALLENQVEERTCSDSEDIGSSECSDTDSEEQGDHARPKKHTTDPDIDKKERKKMVKEAQREKRKNKIPKHVKKRKEKTAKTKKGK
Take B1: the binding entry was “binds”.
